Reference: the supplement of paper PMC12889115
This is one part of the list. Values are raw readings; no control value is given beside them.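 Primary screen: polymyxin B was added at a level permeabilizing Salmonella outer membranes while sparing inner membranes. DMSO wells, both with and without polymyxin B, established maximum growth. Plate-to-plate variation meant each plate was ranked on its own, and the lowest-OD600 compounds were selected as hits.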

System: Salmonella enterica serovar Typhimurium SL1344
Test: bacterial growth OD600 after 18 h with compound and polymyxin B; higher = more bacterial growth (less inhibition)
Settings: 50 µM, Mueller-Hinton broth

Row | Structure (SMILES) | bacterial growth OD600 (polymyxin B 0.75 µg/mL) | bacterial growth OD600 (polymyxin B 1 µg/mL)
1 | COCCCN1C(=O)CC(CC(=O)NCc2cnn(-c3ccccc3C)c2)(c2ccccc2C)C1=O (stereo not given) | 0.722 | 
2 | Cc1ccc2c(c1)CN(C1CCC1)CC(c1ccsc1)O2 (stereo not given) | 0.616 | 
3 | O=C(c1sccc1Cl)N1CCOc2ccc(CN3CCN(c4ccccn4)CC3)cc2C1 | 0.842 | 
4 | Cc1nc(N(C)C2CCCCC2)ncc1C(C)NCc1ccccn1 (stereo not given) | 0.527 | 
5 | Cn1c(C2CCC2)nc2cc(C(=O)NCCc3c[nH]c4ccccc34)cc(NC(=O)C3CCCO3)c21 (stereo not given) | 0.779 | 
6 | CCOc1ccc2nc(N3CCCC(C(=O)N(C)Cc4nccn4C)C3)nc(C)c2c1 (stereo not given) | 0.809 | 
7 | COc1cc(OC)c(OC)cc1CN1CCCC(CO)(Cc2cccc(Cl)c2)C1 (stereo not given) |  | 0.841
8 | O=C1CCCN1CCC1CCCCN1Cc1nc(-c2ccccn2)no1 (stereo not given) |  | 0.972
9 | COc1ccc2nc(CNC(=O)c3oc4ccc(C)cc4c3C)[nH]c2c1 | 0.67 | 
10 | CN(Cc1ccc2nccnc2c1)C(=O)c1ccc(OC2CCN(C(=O)C3CC3)CC2)cc1 |  | 1.07
11 | CN(Cc1ccc2ccccc2n1)C(=O)c1ccc(OCC2(C)CCCNC2)nc1 (stereo not given) | 0.768 | 
12 | CN(CC1CCCCO1)C(=O)CCC1(Cc2ccc3ccccc3c2)CCC(=O)N1 (stereo not given) | 0.881 | 
13 | O=C(CCC1CCN(C(=O)C2CCOCC2)CC1)NCc1cccc(C(F)(F)F)c1 |  | 0.937
14 | CCN(CC)C(=O)c1cnn(-c2nccc(-c3ccc4c(c3)OCO4)n2)c1C | 0.762 | 
15 | CN(CCN1CCOCC1)C(=O)CC(c1ccccc1)c1cccc(Cl)c1 (stereo not given) |  | 0.652
16 | COC(C(=O)NCc1c(C)ncc2c1CCN(C(=O)c1ccc3c(c1)OCO3)C2)c1ccccc1 (stereo not given) | 0.881 | 
17 | CCCCN(C)C(=O)c1coc(COc2cccc3cccnc23)n1 | 0.792 | 
18 | COCC(=O)N(C)CC1CCCN(CCc2ccc(F)cc2)C1 (stereo not given) |  | 0.86
19 | O=C(c1cnn(-c2ncc3c(n2)-c2ccccc2CC3)c1C1CC1)N1CCN(C2CCCCC2)CC1 | 0.744 | 
20 | O=C(c1nc2sccn2c1CNCC1(c2ccccc2)CCOCC1)N1CCCC1 |  | 1.06
21 | COC(C(=O)NCc1nc(-c2ccc(NC(=O)Cc3ccccc3)cc2)oc1C)c1ccccc1 (stereo not given) | 0.009 | 
22 | CC#CCN1C(=O)NC(CCc2ccccc2)(C2CCN(Cc3ccc4c(c3)CCCN4C)CC2)C1=O (stereo not given) | 0.799 | 
23 | CCCc1cc(C(=O)NCC2Cc3cc(-c4ccnc(SC)n4)cc(Cl)c3O2)n(C)n1 (stereo not given) | 0.004 | 
24 | Cc1nc(N2CCCC(C(=O)NCc3cc(F)ccc3F)C2)nc2cc(S(C)(=O)=O)ccc12 (stereo not given) | 1.03 | 
25 | COc1ccc(NC(=O)CCC2CCN(Cc3ccc(Cl)s3)CC2)c(OC)c1 |  | 0.939
26 | COc1ccc(CN2CCN(Cc3nc(-c4ccccc4)cs3)CC2CCO)cc1C (stereo not given) |  | 0.607
27 | CC1(C)CC(CCNC(=O)CCC2(Cc3ccsc3)CCC(=O)N2)(c2ccccc2)CCO1 (stereo not given) | 0.867 | 
28 | CN(C(=O)CC(c1cccc(O)c1)c1ccccc1Cl)C1CCOCC1 (stereo not given) | 0.694 | 
29 | CC(C)c1ccc(NC2CCCN(C(=O)C3CCN(C(=O)N(C)C)CC3)C2)cc1 (stereo not given) |  | 0.943
30 | O=C(NC1CCCN(CCc2ccccc2)C1)c1cccnc1 (stereo not given) |  | 0.946

Taken from above:
bacterial growth OD600 (polymyxin B 1 µg/mL) with O=C1CCCN1CCC1CCCCN1Cc1nc(-c2ccccn2)no1 (stereo not given) is entered as 0.972
bacterial growth OD600 (polymyxin B 0.75 µg/mL) with O=C(c1sccc1Cl)N1CCOc2ccc(CN3CCN(c4ccccn4)CC3)cc2C1 is entered as 0.842
